System: 6 Hz (32 mA) psychomotor seizures
Assay: 6 Hz psychomotor seizure test, 32 mA (incl. TPE determination)
Format: in vivo, mice
Settings: time of peak effect determined in 32 mA 6 Hz test
Procedure: Test compounds were administered using an optimal fluid volume to body fluid ratio. Test compounds were administered to mice in a volume of 0.01 mL/g of body weight (White H. S., et al., General Principles: Experimental selection, quantification, and evaluation of antiepileptic drugs, in Antiepileptic Drugs, Fourth Edition, […], and B. S. Meldrum, Editors. 1995, Raven Press, Ltd.: New York, pp. 99-110). For subcutaneous (s.c.) administration, the test compounds were administered into a loose fold of skin along the back of the animal except compound 6-b, which was administered orally (p.o). […] The animals were maintained on an adequate diet (Prolab RMH 3000) and allowed free access to food and water, except during the short time they were removed from their cage for testing. Animals newly received in the laboratory were allowed sufficient time to correct for possible food and water restriction incurred during transit before being employed in testing. All mice were housed in plastic cages in specially constructed rooms with controlled humidity, exchange of air and controlled lighting (12 hours on-12 hours off). The animals were housed, fed, and handled in a manner consistent with the recommendations in the National Council Publication, “Guide for the Care and Use of Laboratory Animals”. In the determination of an ED50 or TD50 for each test compound, the first dose administered is usually the same dose as that used in a successful TPE determination. […] Third and fourth doses were selected to produce an evenly spaced dose response line. […] TPE was determined using the 6 Hz (32 mA) assay. […] The 6 Hz seizure test is used as a model of pharmacoresistant limbic seizures. […] Focal seizures were induced in mice via corneal stimulation (6 Hz, 0.2 msec rectangular pulse, 3 sec duration; Barton et al. 2001). Mice were tested at either 32 mA or 44 mA. […] The seizures that arise from corneal stimulation in this assay are characterized by a minimal clonic phase followed by stereotyped automatistic behaviors including stun, forelimb clonus, twitching of the vibrissae, and Straub-tail. Animals not displaying these behaviors were considered protected.

Structure (SMILES)	TPE (h) (s.c.)	TPE (s.c.) [h]	other results
Fc1ccc(N2CCN(Cc3ccn4c(CC5CC5)nnc4c3C(F)(F)F)CC2)c(F)c1 [Co. No. 1]	previously determined to be 0.5 h (results shown above in table		TPE (s.c., listed as 1): 0.5 h
CCCCn1ccc(N2CCC(c3ccccc3)CC2)c(Cl)c1=O [Co. No. 2-a]	A time-to-peak effect of 0.5 h was determined in the 32 mA 6 Hz test (s.c.) and used for 6 Hz (32 mA and 44 mA) studies.		TPE (s.c., listed as 2-a): 0.5 h
FC(F)(F)c1c(N2CCC(c3ccccc3)CC2)ccn2c(CC3CC3)nnc12 [Co. No. 2]		0.25	
C[C@H](Oc1ccc(F)cc1F)c1ccn2c(CC3CC3)nnc2c1C(F)(F)F [Co. No. 6-b, 3-(Cyclopropylmethyl)-7-[(1S)-1-(2,4-difluorophenoxy)ethyl]-8-(trifluoromethyl)[1,2,4]triazolo[4,3-a]pyridine]			TPE (h) (p.o.): TPE determined to be 0.5 h.; TPE (p.o., listed as 6-b): 0.5 h
FC(F)(F)Cc1nnc2c(Cl)c(N3CCC(F)(c4ccccc4)CC3)ccn12 [Co. No. 11]		0.5	
CCCCn1ccc(N2CCC(c3ccc(F)cc3F)CC2)c(Cl)c1=O [Co. No. 25-a]	^aThe time-to-peak effect in the 6 Hz 32 mA assay for Co. No. 25-a was determined to be 0.25 h (see Table 1).		TPE (s.c., listed as 25-a): 1 h
N[C@@]1(C(=O)O)CS(=O)(=O)[C@H]2[C@H](C(=O)O)[C@H]21 [LY-404039, reference compound]		0.5	TPE (h) (s.c., listed as LY404039): A time-to-peak effect of 0.5 h was determined in the 32 mA 6 Hz test (s.c.) and used for 6 Hz (32 mA and 44 mA) studies.
